Test results reported in the supplement of paper PMC6411743.
± gives the standard deviation of the averaged measurements. Only a part is listed here, and it is no random draw.

The chains behind the UniProt entries cited, without tags or fusion partners. Where a name states a change or a piece, a line headed by the entry shows the natural chain unless it says otherwise.
UniProt Q9Y2Y9: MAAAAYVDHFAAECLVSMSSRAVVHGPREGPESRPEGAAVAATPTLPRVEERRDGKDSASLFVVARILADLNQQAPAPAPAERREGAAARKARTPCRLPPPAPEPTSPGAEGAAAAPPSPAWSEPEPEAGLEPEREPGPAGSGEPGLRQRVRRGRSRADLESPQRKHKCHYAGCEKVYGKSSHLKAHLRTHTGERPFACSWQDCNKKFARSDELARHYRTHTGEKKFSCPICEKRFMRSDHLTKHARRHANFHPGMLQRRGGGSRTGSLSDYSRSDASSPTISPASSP
UniProt O95999: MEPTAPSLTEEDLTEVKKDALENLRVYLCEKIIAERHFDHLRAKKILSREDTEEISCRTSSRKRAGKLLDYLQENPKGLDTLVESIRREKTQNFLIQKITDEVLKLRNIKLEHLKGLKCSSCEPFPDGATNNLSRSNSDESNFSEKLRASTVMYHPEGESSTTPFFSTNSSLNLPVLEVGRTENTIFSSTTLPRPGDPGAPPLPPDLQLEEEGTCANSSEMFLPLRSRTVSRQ
UniProt Q8N5P1: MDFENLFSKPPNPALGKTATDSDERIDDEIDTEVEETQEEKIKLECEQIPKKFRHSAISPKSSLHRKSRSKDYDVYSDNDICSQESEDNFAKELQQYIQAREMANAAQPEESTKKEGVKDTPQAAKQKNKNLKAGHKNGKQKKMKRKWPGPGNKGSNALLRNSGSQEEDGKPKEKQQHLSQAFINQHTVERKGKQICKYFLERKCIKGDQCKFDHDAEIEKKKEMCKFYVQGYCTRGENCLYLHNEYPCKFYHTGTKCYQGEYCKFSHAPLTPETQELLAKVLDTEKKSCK
UniProt P62333, whole entry: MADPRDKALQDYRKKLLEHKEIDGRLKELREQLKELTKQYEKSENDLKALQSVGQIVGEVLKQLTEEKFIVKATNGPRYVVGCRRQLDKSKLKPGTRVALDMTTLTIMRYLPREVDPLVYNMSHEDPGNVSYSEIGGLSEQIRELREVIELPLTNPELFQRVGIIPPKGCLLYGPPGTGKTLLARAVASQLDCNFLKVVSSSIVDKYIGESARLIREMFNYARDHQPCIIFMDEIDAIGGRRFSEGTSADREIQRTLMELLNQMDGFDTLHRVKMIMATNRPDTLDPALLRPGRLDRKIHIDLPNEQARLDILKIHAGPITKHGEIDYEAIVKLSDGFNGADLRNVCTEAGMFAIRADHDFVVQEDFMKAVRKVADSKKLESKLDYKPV
UniProt Q5ST30: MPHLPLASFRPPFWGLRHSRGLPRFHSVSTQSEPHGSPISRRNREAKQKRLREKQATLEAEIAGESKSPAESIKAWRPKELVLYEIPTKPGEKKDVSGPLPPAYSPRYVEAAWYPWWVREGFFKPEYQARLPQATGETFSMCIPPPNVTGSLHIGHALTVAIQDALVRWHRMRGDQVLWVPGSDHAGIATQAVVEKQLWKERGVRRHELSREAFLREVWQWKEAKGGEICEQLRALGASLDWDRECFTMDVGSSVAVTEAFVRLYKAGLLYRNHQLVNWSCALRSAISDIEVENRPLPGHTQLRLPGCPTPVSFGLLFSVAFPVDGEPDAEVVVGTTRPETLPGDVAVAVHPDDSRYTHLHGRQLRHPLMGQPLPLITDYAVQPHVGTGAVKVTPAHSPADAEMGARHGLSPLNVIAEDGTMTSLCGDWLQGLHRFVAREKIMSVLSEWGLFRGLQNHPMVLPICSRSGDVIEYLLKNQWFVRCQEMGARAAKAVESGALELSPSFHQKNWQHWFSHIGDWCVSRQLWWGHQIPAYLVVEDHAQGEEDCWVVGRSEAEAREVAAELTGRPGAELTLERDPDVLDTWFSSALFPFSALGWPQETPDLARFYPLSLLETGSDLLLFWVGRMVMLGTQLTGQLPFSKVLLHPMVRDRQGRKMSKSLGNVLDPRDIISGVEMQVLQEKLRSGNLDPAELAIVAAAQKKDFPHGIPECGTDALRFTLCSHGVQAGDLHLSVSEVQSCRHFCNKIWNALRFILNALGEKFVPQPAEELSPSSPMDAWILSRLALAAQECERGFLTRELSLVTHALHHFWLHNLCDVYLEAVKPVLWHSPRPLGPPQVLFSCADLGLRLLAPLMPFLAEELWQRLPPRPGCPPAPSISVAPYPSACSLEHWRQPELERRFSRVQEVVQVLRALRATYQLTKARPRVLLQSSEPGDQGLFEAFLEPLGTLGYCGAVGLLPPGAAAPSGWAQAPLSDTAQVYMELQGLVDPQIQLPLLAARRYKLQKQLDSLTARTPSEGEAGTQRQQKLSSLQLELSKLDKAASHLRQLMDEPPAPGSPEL
UniProt O75521: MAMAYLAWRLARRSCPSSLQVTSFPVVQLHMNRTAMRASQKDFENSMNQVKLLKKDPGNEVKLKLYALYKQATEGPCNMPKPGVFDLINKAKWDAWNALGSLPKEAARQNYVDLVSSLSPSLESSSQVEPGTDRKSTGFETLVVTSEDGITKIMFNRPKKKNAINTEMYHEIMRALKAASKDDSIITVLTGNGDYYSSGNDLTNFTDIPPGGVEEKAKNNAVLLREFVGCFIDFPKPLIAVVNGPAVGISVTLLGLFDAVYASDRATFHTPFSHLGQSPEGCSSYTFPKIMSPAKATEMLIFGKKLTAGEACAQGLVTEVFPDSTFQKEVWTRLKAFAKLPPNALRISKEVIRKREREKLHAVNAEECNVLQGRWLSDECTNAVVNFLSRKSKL
UniProt P42330: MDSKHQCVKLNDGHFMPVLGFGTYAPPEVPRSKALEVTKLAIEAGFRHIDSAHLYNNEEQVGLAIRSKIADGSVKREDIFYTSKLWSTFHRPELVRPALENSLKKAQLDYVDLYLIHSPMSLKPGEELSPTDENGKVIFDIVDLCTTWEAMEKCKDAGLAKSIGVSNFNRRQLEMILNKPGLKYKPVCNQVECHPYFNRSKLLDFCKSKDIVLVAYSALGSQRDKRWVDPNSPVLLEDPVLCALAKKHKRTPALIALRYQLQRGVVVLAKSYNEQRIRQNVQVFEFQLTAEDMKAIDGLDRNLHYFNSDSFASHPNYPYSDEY
UniProt P51790: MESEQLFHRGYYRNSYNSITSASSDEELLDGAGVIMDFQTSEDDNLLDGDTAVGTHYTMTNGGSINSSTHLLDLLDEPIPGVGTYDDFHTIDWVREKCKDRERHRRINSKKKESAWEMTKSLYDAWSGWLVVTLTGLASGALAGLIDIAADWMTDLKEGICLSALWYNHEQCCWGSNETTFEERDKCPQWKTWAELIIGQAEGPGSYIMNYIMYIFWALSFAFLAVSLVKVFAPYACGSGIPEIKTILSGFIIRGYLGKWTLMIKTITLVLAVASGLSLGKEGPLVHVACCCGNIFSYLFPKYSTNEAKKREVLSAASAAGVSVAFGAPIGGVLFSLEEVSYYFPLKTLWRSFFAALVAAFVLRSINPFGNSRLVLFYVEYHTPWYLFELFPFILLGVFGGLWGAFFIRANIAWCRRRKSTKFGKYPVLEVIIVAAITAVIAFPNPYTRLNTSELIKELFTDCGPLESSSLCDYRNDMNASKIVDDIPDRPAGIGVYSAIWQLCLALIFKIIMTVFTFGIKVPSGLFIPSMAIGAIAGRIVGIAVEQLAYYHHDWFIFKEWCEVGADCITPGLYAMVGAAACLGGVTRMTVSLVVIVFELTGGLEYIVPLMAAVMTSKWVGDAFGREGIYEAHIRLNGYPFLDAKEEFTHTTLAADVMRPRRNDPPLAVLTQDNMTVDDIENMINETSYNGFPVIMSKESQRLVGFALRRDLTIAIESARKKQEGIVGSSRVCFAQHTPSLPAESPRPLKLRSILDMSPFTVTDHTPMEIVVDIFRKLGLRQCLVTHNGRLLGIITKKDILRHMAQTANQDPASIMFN
UniProt Q99550: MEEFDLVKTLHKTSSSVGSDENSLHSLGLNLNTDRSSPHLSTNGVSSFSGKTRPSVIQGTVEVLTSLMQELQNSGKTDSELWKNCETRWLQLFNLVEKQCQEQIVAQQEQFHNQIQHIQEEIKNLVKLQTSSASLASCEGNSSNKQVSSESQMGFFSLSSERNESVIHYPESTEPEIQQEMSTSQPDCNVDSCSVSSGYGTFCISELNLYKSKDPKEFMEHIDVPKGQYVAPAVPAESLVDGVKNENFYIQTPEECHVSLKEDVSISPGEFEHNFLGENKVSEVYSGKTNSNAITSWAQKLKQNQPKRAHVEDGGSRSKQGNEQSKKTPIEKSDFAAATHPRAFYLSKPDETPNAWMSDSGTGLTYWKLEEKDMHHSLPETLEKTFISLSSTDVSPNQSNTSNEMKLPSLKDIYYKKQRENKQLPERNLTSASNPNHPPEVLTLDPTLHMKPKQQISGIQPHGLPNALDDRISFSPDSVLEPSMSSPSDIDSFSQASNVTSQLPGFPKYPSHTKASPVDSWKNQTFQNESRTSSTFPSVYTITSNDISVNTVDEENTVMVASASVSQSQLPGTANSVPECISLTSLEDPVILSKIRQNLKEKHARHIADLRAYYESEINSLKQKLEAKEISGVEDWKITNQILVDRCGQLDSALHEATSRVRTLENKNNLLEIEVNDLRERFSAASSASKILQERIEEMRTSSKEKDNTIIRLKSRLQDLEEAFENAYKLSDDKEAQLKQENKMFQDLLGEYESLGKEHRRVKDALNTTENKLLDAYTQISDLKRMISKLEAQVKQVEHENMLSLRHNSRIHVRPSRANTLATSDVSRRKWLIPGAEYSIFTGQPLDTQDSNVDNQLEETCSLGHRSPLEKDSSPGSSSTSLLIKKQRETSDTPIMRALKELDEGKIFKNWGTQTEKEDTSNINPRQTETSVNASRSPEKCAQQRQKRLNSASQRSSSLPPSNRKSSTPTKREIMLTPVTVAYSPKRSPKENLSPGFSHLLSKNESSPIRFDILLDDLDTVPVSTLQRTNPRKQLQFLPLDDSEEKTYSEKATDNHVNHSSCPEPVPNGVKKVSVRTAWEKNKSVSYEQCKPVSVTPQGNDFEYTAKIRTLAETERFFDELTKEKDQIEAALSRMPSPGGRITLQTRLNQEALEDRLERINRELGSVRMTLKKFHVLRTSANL
UniProt Q96D31, whole entry, looked up: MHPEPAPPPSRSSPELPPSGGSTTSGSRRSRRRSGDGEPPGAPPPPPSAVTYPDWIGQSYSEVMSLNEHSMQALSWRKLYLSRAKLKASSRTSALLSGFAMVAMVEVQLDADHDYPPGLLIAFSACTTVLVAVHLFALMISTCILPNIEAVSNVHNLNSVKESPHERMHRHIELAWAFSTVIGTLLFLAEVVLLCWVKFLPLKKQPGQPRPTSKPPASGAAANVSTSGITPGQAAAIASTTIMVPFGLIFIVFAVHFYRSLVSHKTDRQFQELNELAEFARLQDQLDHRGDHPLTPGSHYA
UniProt Q9C0C7: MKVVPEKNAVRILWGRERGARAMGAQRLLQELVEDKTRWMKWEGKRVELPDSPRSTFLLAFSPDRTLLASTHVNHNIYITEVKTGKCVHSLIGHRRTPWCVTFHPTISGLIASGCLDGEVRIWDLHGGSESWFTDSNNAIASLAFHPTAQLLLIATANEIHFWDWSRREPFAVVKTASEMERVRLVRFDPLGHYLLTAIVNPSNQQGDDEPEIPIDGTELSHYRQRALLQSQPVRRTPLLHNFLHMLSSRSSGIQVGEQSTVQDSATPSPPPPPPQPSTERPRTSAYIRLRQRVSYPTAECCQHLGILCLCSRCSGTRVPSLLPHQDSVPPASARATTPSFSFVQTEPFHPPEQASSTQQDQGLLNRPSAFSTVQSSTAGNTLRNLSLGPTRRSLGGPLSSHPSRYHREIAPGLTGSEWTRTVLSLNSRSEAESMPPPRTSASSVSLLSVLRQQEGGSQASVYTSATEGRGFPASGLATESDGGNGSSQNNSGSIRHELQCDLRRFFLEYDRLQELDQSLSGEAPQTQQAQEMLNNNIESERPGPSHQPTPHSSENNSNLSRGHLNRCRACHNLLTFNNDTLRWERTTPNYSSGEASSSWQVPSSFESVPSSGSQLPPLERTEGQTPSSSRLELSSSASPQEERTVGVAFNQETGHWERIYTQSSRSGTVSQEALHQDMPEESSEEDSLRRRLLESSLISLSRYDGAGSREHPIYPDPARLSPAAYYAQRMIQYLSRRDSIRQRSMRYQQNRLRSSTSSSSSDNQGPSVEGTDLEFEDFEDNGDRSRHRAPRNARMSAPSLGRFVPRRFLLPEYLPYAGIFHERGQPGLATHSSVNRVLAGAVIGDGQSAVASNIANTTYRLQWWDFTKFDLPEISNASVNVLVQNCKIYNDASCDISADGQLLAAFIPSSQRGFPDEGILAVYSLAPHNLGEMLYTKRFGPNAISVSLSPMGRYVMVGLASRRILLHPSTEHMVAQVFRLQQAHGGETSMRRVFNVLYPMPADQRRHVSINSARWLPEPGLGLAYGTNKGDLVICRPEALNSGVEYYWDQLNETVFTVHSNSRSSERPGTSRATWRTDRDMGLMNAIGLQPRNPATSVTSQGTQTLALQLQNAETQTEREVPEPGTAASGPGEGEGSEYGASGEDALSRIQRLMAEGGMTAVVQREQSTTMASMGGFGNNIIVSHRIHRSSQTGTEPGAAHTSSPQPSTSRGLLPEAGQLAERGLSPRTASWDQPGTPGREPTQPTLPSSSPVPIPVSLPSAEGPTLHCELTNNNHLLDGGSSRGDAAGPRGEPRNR

Compound: Nc1ncnc2c1ncn2[C@@H]1O[C@H](COP(=O)(O)OP(=O)(O)OP(=O)(O)O)[C@@H](O)[C@H]1O [adenosine triphosphate]
Test: NP40-soluble protein abundance relative to vehicle (solubility fold change) (ratio); higher = more soluble protein in presence of ATP
Method in brief: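 Each value is a fold change relative to the detergent-processed vehicle, calculated per replicate from vsn-normalised intensities. Jurkat crude lysate received eight concentrations (0.1 to 10 mM) for 10 min at room temperature and 3 min at 37 °C, then was solubilised in 0.8% NP40 with benzonase (60 min, 4 °C). The ultracentrifuged supernatant was TMT-labelled and run by LC-MS/MS in three independent experiments.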

Target	NP40-soluble protein abundance (concentration: 1mM)	NP40-soluble protein abundance (concentration: 2mM)	NP40-soluble protein abundance (concentration: 4mM)	NP40-soluble protein abundance (concentration: 6mM)	NP40-soluble protein abundance (concentration: 8mM)	NP40-soluble protein abundance (concentration: 10mM)
A0A087WUC6|E9PI68 and related entries (UniProt Q15005)	0.928 ± 0.064	0.952 ± 0.041	0.943 ± 0.034	0.972 ± 0.024	0.935 ± 0.044	0.927 ± 0.026
A0A087WW39|P55198 (UniProt P55198)	1.175 ± 0.0095	1.11 ± 0.16	1.29 ± 0.062	1.28 ± 0.062	1.24 ± 0.11	1.34 ± 0.11
A0A087X0M1|H0YAA8 and related entries (UniProt Q9H204)	0.902 ± 0.14	0.882 ± 0.21	0.907 ± 0.16	0.855 ± 0.22	0.909 ± 0.12	0.786 ± 0.22
A0A087X1K6|Q9Y2Y9 (UniProt Q9Y2Y9)	0.898 ± 0.033	0.938 ± 0.06	0.89 ± 0.071	0.91 ± 0.086	0.885 ± 0.15	0.899 ± 0.076
A0A087X256|Q2M389 (UniProt Q2M389)	1.04 ± 0.16	1.05 ± 0.12	1.04 ± 0.077	0.961 ± 0.12	1.1 ± 0.066	1.04 ± 0.077
A0A0A0MRZ4|E7EMV7 and related entries (UniProt Q15025)	0.961 ± 0.1	0.933 ± 0.013	0.971 ± 0.01	0.981 ± 0.086	0.968 ± 0.069	0.9375 ± 0.0033
A0A087WWW9|O95999 (UniProt O95999)	0.922 ± 0.049	0.953 ± 0.021	0.907 ± 0.015	0.946 ± 0.036	0.902 ± 0.028	0.887 ± 0.056
A0A0C4DFM1|Q92544 (UniProt Q92544)	1.12 ± 0.11	1.05 ± 0.12	1.03 ± 0.13	0.997 ± 0.14	1.03 ± 0.1	0.988 ± 0.058
A0A0C4DGZ1|Q8N5P1 (UniProt Q8N5P1)	1.04 ± 0.08	1.12 ± 0.086	1.16 ± 0.097	1.31 ± 0.12	1.26 ± 0.11	1.33 ± 0.068
A0A087X2I1|P62333 (UniProt P62333)	0.945 ± 0.077	0.883 ± 0.035	0.867 ± 0.041	0.84 ± 0.052	0.895 ± 0.038	0.855 ± 0.031
A0A0A6YYC8|I3L1I5 (UniProt I3L1I5)	0.895 ± 0.045	0.892 ± 0.033	0.93 ± 0.024	0.892 ± 0.11	0.893 ± 0.015	0.877 ± 0.087
A0A0A0MSH9|Q86WJ1 and related entries (UniProt Q86WJ1)	1.01 ± 0.021	1 ± 0.026	0.992 ± 0.021	0.985 ± 0.049	1.01 ± 0.029	0.987 ± 0.026
A0A0A0MTB0|A0A0J9YYI4|D6RHG7 and related entries (UniProt Q86VE9)	0.95 ± 0.043	0.972 ± 0.082	0.955 ± 0.059	0.972 ± 0.11	0.995 ± 0.15	0.962 ± 0.061
A0A087WTV7|D6R9U7 and related entries (UniProt O15318)	0.908 ± 0.099	0.949 ± 0.043	0.893 ± 0.059	0.895 ± 0.036	0.838 ± 0.11	0.858 ± 0.098
A0A087WT59|A0A087WV45|P02766 (UniProt P02766)	0.918 ± 0.12	0.919 ± 0.056	0.887 ± 0.067	0.891 ± 0.1	0.878 ± 0.014	0.848 ± 0.11
A0A0A0MTG1|Q5ST30 and related entries (UniProt Q5ST30)	1.04 ± 0.02	1.04 ± 0.02	1.04 ± 0.015	1.01 ± 0.03	1.029 ± 0.0018	1.02 ± 0.026
A0A0C4DGA2|O75521 and related entries (UniProt O75521)	1.01 ± 0.04	0.997 ± 0.016	0.973 ± 0.037	1.01 ± 0.023	0.976 ± 0.043	0.992 ± 0.037
A0A0A0MSS8|P42330 and related entries (UniProt P42330)	0.983 ± 0.037	1.02 ± 0.056	0.976 ± 0.083	0.951 ± 0.12	0.953 ± 0.028	0.966 ± 0.072
A0A0C4DH16|B8ZZS0 and related entries (UniProt Q9NYM9)	0.992 ± 0.054	0.967 ± 0.046	1.01 ± 0.028	0.963 ± 0.078	0.953 ± 0.06	0.816 ± 0.17
A0A0A0MQS0|A8MW92 and related entries (UniProt A8MW92)	1.06 ± 0.074	1.09 ± 0.063	1.15 ± 0.04	1.27 ± 0.11	1.19 ± 0.071	1.24 ± 0.082
A0A087WZ97|A0A087WZK6|A0A087X2C2|Q5T7M9 (UniProt Q5T7M9)	0.973 ± 0.072	1.05 ± 0.09	1.04 ± 0.03	0.981 ± 0.038	0.985 ± 0.04	0.964 ± 0.084
A0A087WU31|A0A0A0MTB7|P51790 and related entries (UniProt P51790)	0.967 ± 0.054	1.01 ± 0.027	0.942 ± 0.032	0.947 ± 0.029	0.905 ± 0.025	0.946 ± 0.044
A0A0A0MTP3|Q99550 and related entries (UniProt Q99550)	0.874 ± 0.051	0.922 ± 0.09	0.849 ± 0.022	0.796 ± 0.14	0.864 ± 0.033	0.959 ± 0.051
A0A0B4J2E8|Q96D31 and related entries (UniProt Q96D31)	0.994 ± 0.092	0.956 ± 0.097	1.07 ± 0.095	0.999 ± 0.066	1.05 ± 0.094	1 ± 0.12
A0A075B6T1|Q9C0C7 and related entries (UniProt Q9C0C7)	0.932 ± 0.059	0.913 ± 0.084	0.968 ± 0.06	0.935 ± 0.097	0.93 ± 0.099	0.945 ± 0.15
A0A0A0MTD9|A0A0A0MTE6|A0A0B4J1S7|E9PMT0 and related entries (UniProt Q9Y2R2)	1.05 ± 0.067	1.03 ± 0.049	1.11 ± 0.076	1.08 ± 0.068	1.06 ± 0.092	1.13 ± 0.1
A0A087X0W8|Q04206 and related entries (UniProt Q04206)	0.975 ± 0.02	0.982 ± 0.014	0.978 ± 0.014	0.965 ± 0.05	0.979 ± 0.017	0.971 ± 0.014
A0A0A0MRR5|Q96BW1 and related entries (UniProt Q96BW1)	0.928 ± 0.021	0.98 ± 0.035	0.96 ± 0.018	0.9782 ± 0.0081	0.89 ± 0.099	0.9 ± 0.06
A0A087WUL7|Q96F24 (UniProt Q96F24)	1.01 ± 0.094	0.977 ± 0.083	1.01 ± 0.048	1 ± 0.047	0.978 ± 0.069	0.9628 ± 0.009

In another format: results already given.
A0A0A0MTB0|A0A0J9YYI4|D6RHG7 and related entries (UniProt Q86VE9)
  NP40-soluble protein abundance (concentration: 1mM): 0.95 ± 0.043
  NP40-soluble protein abundance (concentration: 2mM): 0.972 ± 0.082
  NP40-soluble protein abundance (concentration: 4mM): 0.955 ± 0.059
  NP40-soluble protein abundance (concentration: 6mM): 0.972 ± 0.11
  NP40-soluble protein abundance (concentration: 8mM): 0.995 ± 0.15
  NP40-soluble protein abundance (concentration: 10mM): 0.962 ± 0.061
A0A0C4DGA2|O75521 and related entries (UniProt O75521)
  NP40-soluble protein abundance (concentration: 1mM): 1.01 ± 0.04
  NP40-soluble protein abundance (concentration: 2mM): 0.997 ± 0.016
  NP40-soluble protein abundance (concentration: 4mM): 0.973 ± 0.037
  NP40-soluble protein abundance (concentration: 6mM): 1.01 ± 0.023
  NP40-soluble protein abundance (concentration: 8mM): 0.976 ± 0.043
  NP40-soluble protein abundance (concentration: 10mM): 0.992 ± 0.037
